In publication PMC10845952:
No constants are given. Whether binding was seen depends on the method and setting. Binding seen in cells or lysates may run through a third protein. Some binding calls cover weakened binding; strength is not graded here. Where a sequence is shown, tags or fusion partners need not be part of it.

How the values were obtained:
[1] = molecular target: T1, 3x FLAG epitope-tagged MecA (S. mutans) (UniProt Q8DW33); experiment: co-IP; 3x FLAG-tagged MecA as bait, 3x HA-tagged candidates; lysates of mid-log S. mutans (cells formaldehyde crosslinked by the methods); anti-FLAG affinity resin; anti-HA western blot, input against output
T1 sequence: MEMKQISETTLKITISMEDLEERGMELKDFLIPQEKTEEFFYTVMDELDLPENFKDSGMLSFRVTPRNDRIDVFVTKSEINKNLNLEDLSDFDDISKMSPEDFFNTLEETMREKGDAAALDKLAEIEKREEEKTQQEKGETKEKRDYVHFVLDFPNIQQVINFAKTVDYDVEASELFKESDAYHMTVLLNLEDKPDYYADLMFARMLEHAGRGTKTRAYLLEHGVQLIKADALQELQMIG

[2] = molecular target: T1, 3x FLAG epitope-tagged MecA (S. mutans); experiment: co-IP

B1: 3x HA epitope-tagged ClpC (protein, UniProt Q8DS14 1-813)
chain: MTDYSLKMQEVFRLAQFEAARFESSYLESWHVLLAMVEIDSSVAGLSFAEFEADVRFEDYQAAAILAIGKKPKSSSNDIMLLEQSHALKRTLAEAAAISQVTHAKEVGTEHVLFAMLLNPNLLATRILELVGFHAKDDGESIRLLDLRKVIERYAGFSKEDIKAIFEMRKPKKVKNSSSFSDLMKPPSVTGELADFTRDLTELARQGRLEPVIGREQEISRMVQILSRKTKNNPVLVGDAGVGKTALAYGLAQRIVDSAVPFELADMKVLELDMMSVVAGTRFRGDFEERMNQIIADIEADGHIVLFIDELHTIMGSGSGIDSTLDAANILKPALARGSLRTIGATTQEEYQKHIEKDAALSRRFAKVTIEEPSEEEAYQILLGLKKSYETYHHVIISDAAVMAAVKGAHRYLSGKNLPDSAIDLLDEASATVQGLVKKKAPAYLTDLDHALITNDYQLAKRLLKKEKKPLLKKRAEVKEEDILATLSKLSGIPVKKLTQADSKKYLNLERELHKRVIGQDDAVSSISRAIRRNQSGIRVGKRPIGSFMFLGPTGVGKTELAKALAEVLFDDESALIRFDMSEYMEKFAASRLNGAPPGYVGYEEGGELTEKVRNKPYSVLLFDEVEKAHPDIFNILLQVLDDGVLTDSRGRKVDFSNTIIIMTSNLGATALRDDKTVGFGAKSFSQDYKAMESRILEELKKVYRPEFINRIDEKVVFHNLGQEDIRHIVKIMVAPLIAHLADQGITLKFQPSALKHLALAGYDAEMGARPLRRTLQTEVEDKLAELILSGKLASGQTLKIGIQKEKLKFDIV
binding [1]: binds

B2: 3x HA epitope-tagged ThiI (protein, UniProt Q8DUR1 1-405)
chain: MQYSEIMVRYGELSTKGKNRMRFINQLKRNMKHVLSIYPEVSIRADRDRAHIYLNGANYVPVAESLKQIFGIQAFSPSYKVEKSVPALEKAVQAIMVELHHEGLTFKISSKRSDHQFELDSRELNQVLGSAVFAVLPDIKAQMNHPNVNLKVEIREEAAYLSYENIKGAGGLPVGTAGKGMLMLSGGIDSPVAGYLALKRGVNIEAVHFASPPYTSPGALKKAQDLTRKLTKFGGNIQFIEVPFTEIQEEIKAKAPEAYLMTLTRRFMMRIADRIREERSGLVIINGESLGQVASQTLESMQAINAVTTTPVIRPVVTMDKLEIIDIAEKIDTFAISIQPFEDCCTIFAPDRPKTNPKIKNVEQYEARLDIEGLVARAVAGINITEITPQEESQDEVDVLIEDLL
binding [1]: binds

B3: 3x HA epitope-tagged GltB (protein, UniProt Q8CWY8 1-478)
chain: MADPFGFLKYERKDNPYRPVNERIKDFEELQTTLSVEERQKQAARCMNCGIPFCHEGTFYGGGRAVSGCPNDNLIPEWNDLIYKGDFRRAFERLTRTNPLPEMTGRVCPAPCEKACTEGLNGSGVTIHDNERFIIDNAFEEGWVADSGRPIERTGFKVAVVGSGPAGLSAAWRLNQLGHSVTVFERSDRFGGLLMYGIPNMKLDKKIVQRRIDTMASIGINFVANTEIGRDITAEELLEKFDRVILATGASVPRDLDIPGRDLKGIRFAVDFLTETTKNLLDSDTHELPPLLEGKHVLVIGGGDTGNDCIGTAVRLGAASVRQLEITPQLPEKRLPTNPWPQYPMINRTGYGQEEADFVQQTDLTDYITSTVEFLGENGQVTAVKTIKVGPGFKAIEGTEEVIKADLVLLAMGFTGAEKALFDQFRVECVYDDYSTRNEKVFVAGDARRGPSLVIWGIREGRKTAEKIDQNLRMMVTE
binding [1]: binds

B4: 3x HA epitope-tagged AlaS (protein, UniProt Q8CWY0 1-872)
chain: MKQLTSAQVRQMWLDFWKSKDHAIEPSANLVPVNDPTLLWINSGVATLKKYFDGSVIPENPRITNAQKAIRTNDIENVGKTARHHTMFEMLGNFSVGDYFRDDAIKWGFELLTSPEWFDLPKDKLYMTYYPDDKDSYNRWIECGVDPSHLIPIEDNFWEIGAGPSGPDTEIFFDRGEDFDPDHIGVRLLAEDIENDRYIEIWNIVLSQFNADPAVPRSEYKELPHKNIDTGAGLERLVAVMQGAKTNFETDLFMPIIREIEKLSGKTYDQDGDNMSFKVIADHIRSLSFAIGDGALPGNEGRGYVLRRLLRRAVMHGRRLGINEPFLYKLVPTVGKIMESYYPEVLEKQDFIEKIVKREEETFARTIDAGSNMLDQLLADLKAADKDTLEGKDIFRLYDTYGFPVELTEELAEDAGFKIDHQGFQAAMKEQQERARANVVKGGSMGMQNETLSNITEKSTFNYEKEALDSSLSVIIADNKRIEAVSEGQVLLVFSETPFYAEMGGQVADHGLIKNDKGDTVARVTDVQKAPNGQALHTVDVLGSLSVGTTYHLEIDHERRNRVMKNHTATHLLHAALHNVIGNHATQAGSLNEVEFLRFDFTHFEAVTPEELRQIEEEVNQQIWKAIPVTTIETDLDTAKEMGAMALFGEKYGKNVRVVSIGDYSVELCGGTHLKNTSEIGIFKIVKEEGIGSGTRRILAVTSKEAFEAYRQEEDILKEIATTLKAPQMNQVANKVASLQDQLHKLQKENAELKEKAAAVAAGDIFKDVKEVNGLRYIASQVEVADAGALRTFADKWKQKDYSDVLVLVASIGKKVNVLVASKSKDIHAGNLIKALAPIVSGRGGGKPDMAMAGGSDASAIKDLIAAVAENL
binding [1]: binds weakly

B5: 3x HA epitope-tagged DnaG (protein, UniProt Q8DUS6 1-592)
chain: MVVDKEKIKEIKDSINIVDVIGEVVSLSRSGRNYLGLCPFHKEKTPSFNVIEDRQFFHCFGCGRSGDVFKFVEDYRNISFLESVQVLAERSGINVTLQDKSQEVKKEHPHQKLFNINGDANKFYQAVLKTTKVGETARQYLYERGLTDELITYFKIGLAPNEYDYLYQAMLKKYDEDTIINSGLFNLSDSNSIYDAFRNRIMFPLTDEFGHIIGFSGRIWTEEDTSKKLAKYKNTRSTIIFNKSYELYHLDKARTAAKKEHELYLMEGFMDVIAAYRAGIPNAVASMGTALTPEHVKHLRKFTKKVILTYDGDKAGQNAIAKSLNLLSNMAVEIVRIPGQMDPDEFIKENSEEELEKLLKQARISSAEFWIEHLKPENIDNLQAEIDYVEKIAKVIAASPSITAQNTYINKVAEFLPDFDYLQVEQAVNNERLQMRSQISEQESANQQVLIDLPVTKQLTALTKAESQLFHRLLHHDYLLNEFRNRAHFKFTTPELQELYQILKTNGEINAYDLSQLSNQLQETYYRVLEENLPEEIAEDEIRQIEDQIDKCLQRQEMRKQSKAIRESSNHGDVDTAVEGLAALIAQKRNME
binding [2]: binds
